The assay deals with ATG16L1 (mouse (endogenous in acute cortical slices)) (UniProt Q8C0J2). In words: co-IP.

The chains behind the UniProt entries cited, without tags or fusion partners.
UniProt Q8C0J2: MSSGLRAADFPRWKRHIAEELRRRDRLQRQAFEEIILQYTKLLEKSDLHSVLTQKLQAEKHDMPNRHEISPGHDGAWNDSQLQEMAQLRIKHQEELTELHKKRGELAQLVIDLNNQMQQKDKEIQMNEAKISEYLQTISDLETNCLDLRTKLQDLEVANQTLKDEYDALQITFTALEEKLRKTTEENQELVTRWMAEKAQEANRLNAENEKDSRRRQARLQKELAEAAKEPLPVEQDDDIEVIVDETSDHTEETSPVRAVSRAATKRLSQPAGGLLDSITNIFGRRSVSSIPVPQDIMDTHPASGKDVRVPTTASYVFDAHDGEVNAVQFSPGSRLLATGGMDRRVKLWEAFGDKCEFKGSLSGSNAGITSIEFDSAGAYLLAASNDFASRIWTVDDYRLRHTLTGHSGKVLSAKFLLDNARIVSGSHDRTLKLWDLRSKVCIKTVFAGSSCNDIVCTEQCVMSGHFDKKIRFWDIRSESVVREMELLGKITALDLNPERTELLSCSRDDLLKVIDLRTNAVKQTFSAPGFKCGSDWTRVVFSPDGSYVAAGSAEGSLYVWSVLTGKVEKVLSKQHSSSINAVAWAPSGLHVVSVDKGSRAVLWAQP

No constants are given. Whether binding was seen depends on the method and setting. In cells and extracts the contact can be indirect. Some entries that bind do so weakly or less than the wild type.

B1: Rab5b (protein, UniProt P61021 1-215)
chain: MTSRSTARPNGQPQASKICQFKLVLLGESAVGKSSLVLRFVKGQFHEYQESTIGAAFLTQSVCLDDTTVKFEIWDTAGQERYHSLAPMYYRGAQAAIVVYDITNQETFARAKTWVKELQRQASPSIVIALAGNKADLANKRMVEYEEAQAYADDNSLLFMETSAKTAMNVNDLFLAIAKKLPKSEPQNLGGAAGRSRGVDLHEQSQQNKSQCCSN
Consider B1, for which the binding entry is “binds”.

Values taken from article doi:10.1101/2025.11.25.690410.
